# Screening data, single-dose tests

Chains of the proteins cited; added tags and fusions are not shown. Residues count along the entry.
UniProt A4I591, 1-473: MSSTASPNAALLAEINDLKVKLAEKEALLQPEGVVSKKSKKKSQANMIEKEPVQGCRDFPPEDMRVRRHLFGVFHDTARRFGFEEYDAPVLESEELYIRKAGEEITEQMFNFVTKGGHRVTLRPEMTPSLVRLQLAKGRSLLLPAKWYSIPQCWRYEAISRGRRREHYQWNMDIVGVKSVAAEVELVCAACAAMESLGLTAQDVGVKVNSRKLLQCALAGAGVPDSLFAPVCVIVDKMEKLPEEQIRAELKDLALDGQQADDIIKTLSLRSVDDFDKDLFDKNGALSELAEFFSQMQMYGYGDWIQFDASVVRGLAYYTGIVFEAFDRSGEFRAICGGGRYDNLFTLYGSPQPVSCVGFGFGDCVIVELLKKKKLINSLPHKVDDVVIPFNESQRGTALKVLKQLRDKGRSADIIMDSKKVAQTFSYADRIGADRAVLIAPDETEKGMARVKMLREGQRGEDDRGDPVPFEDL
UniProt P9WNZ1, whole entry: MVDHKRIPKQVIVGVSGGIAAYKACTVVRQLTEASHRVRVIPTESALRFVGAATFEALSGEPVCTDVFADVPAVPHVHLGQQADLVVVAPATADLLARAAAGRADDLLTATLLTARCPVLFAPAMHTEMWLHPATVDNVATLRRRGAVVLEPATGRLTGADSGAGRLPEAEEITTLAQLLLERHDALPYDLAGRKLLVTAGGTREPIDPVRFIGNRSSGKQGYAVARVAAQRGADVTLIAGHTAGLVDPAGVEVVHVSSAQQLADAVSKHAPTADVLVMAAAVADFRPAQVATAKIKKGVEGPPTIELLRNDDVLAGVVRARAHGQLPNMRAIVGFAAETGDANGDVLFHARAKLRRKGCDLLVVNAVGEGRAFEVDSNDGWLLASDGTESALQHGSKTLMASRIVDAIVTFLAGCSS

Data taken from ChEMBL document CHEMBL3988442, “University of Dundee, Small-Polar-MMV Screening Library” (2021).

LiHisRS: 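Enzyme assay of histidyl-tRNA synthetase; the read-out is not stated. Target: Histidine-tRNA ligase, Leishmania infantum (UniProt A4I591). Tested at 30 µM. The record gives no direction; compounds that gave an IC50 in retests scored well above the rest, so higher reads as stronger inhibition. The assay is labelled LdHisRS but filed under L. infantum. Size under these conditions: about 69,000 compounds, about 410 of them at 50% or above in at least one test.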
Leishmania in macrophages: 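Cell assay of Leishmania donovani living inside macrophages; the read-out is not stated. Compounds at 30 µM. Higher reads as stronger inhibition (inferred: compounds with an IC50 in retests scored well above the rest). Size under these conditions: about 69,000 compounds, about 1,000 of them at 50% or above in at least one test.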
CoaBC: 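Enzyme assay of CoaBC with a phosphate dye (Biomol Green) read at 650 nm. Target: Coenzyme A biosynthesis protein CoaBC, Mycobacterium tuberculosis (UniProt P9WNZ1). Tested at 30 µM. Higher reads as stronger inhibition, judged from the few compounds that gave an IC50. Most strong results did not repeat in a second test. Size under these conditions: about 67,000 compounds, about 40 of them at 50% or above in at least one test.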

Each number is a percent effect as filed. The controls that fix the scale are not given in the record; negative values are as filed. Compounds were drawn at random from those tested, without regard to their results. A dash means the value is not listed here; it may have been measured.

SMILES | LiHisRS | Leishmania in macrophages | CoaBC
Cc1oc(-c2cc(F)cc(F)c2)nc1CN1C[C@@H](C)NC[C@@H]1C | 31.65% | 27.99% | 1.901%
COCCOCC(=O)Nc1ccc(C)cc1F | -2.857% | 14.06% | -5.803%
CNC(=O)N1CCC2(CC1)c1ncc(-c3cccc(F)c3)n1CCN2C | 5.769% | - | 2.545%
COCCCNc1c(-c2ccc(C)cc2)c(=O)c1=O | 10.96% | 33.04% | -14.36%
CNc1cc(C)nc(N2C[C@H](C3CC3)[C@@H](N)C2)n1 | 0% | 66.39% | -28.43%
CCCN1CCCN(S(=O)(=O)c2cnc3onc(C)c3c2)CC1 | 20.88% | 18.35% | -5.425%
Cc1ccc(F)c(NCc2ccc(C(=O)N(C)C)[nH]2)c1 | 15.32% | 17.22% | 6.615%
CCOCCOc1ccc(S(=O)(=O)N2CCc3c(nc[nH]c3=O)C2)cc1 | 18.37% | 59.04% | 7.107%
CCc1nc(CN(C)C2CCN(CC(F)(F)F)C2)no1 (centres undefined) | 10.71% | 18.68% | 2.045%
COc1ccc2[nH]c(C[C@@H]3C[C@@H](C(C)C)[C@H](CN(C)C)C=C3C)nc2c1 | 13.89% | 12.4% | -15.58%
CC(NC(=O)C1CCN(S(N)(=O)=O)CC1)c1cccc(OC(F)F)c1 (centres undefined) | 21.92% | 30.5% | 7.579%
Cc1occc1C(=O)Nc1ccnc(OC2CCOC2)c1 (centres undefined) | 8.654% | 21.95% | 6.329%
Cn1cnnc1SCC(=O)NC1CC(=O)N(CCc2cccc(Cl)c2)C1 (centres undefined) | 3.448% | 3.852% | 3.579%
CC(=O)N[C@@H]1CN(S(=O)(=O)c2ccc(Cl)cc2)C[C@H]1O | 7.092% | 32.37% | 2.564%
CCc1nc(CN(C)C2CCN(CCc3ccccn3)C2)no1 (centres undefined) | 25.68% | 13.67% | 2.738%
COc1ccc(C2C3=C(COC3=O)Nc3[nH]nc(C)c32)cc1OC (centres undefined) | 13.59% | 0.9649% | 12.25%
Cc1ccc2c(c1)C(NCc1nnc3n1CCCCC3)CCCO2 (centres undefined) | -9.091% | -1.075% | -2.17%
O=C(O)C(F)(F)F.O=C(O)C(F)(F)F.[H][C@@]12CCCO[C@]1([H])[C@@H](NC(=O)c1cccnc1)CN2Cc1cccs1 | - | 14.46% | -
CC(C)N1CCC2(C=C(C(=O)NC3CC3)c3ccccc32)CC1.O=C(O)C(F)(F)F | - | 0.01033% | -
CNC(=O)Cn1ccc2ccc(NC(=O)NC(C)C(C)C)cc21 (centres undefined) | 10.42% | 8.534% | -3.913%
C[C@@H]1CN(C(=O)C2CCOCC2)C[C@]12CCN(c1cccnc1)C2=O | 14% | - | 5.123%
Cc1noc(CNC(=O)CN(C)c2nc3ccccc3s2)n1 | 21.51% | -23.7% | 3.479%
CC(C)N1C(=O)C2(CCN(C)CC2)c2cc(F)ccc21 | 14% | - | 3.448%
COCC(=O)N1CCCC1c1cc(Nc2nnc(C)s2)nc(C)n1 (centres undefined) | 9.489% | -20.97% | -2.073%
O=C(O)C(F)(F)F.O=C(O)C(F)(F)F.[H][C@@]12CN(Cc3ccc(F)cc3)C[C@]1([H])OCCN2CC1CCCO1 (some centres undefined) | - | 14.26% | -
O=C(CN1CCC2(CCCCC2)C1)NCC(F)(F)F | 9.6% | 31.46% | 1.707%
c1cncc(CN2Cc3nccn3CC(Cn3cccn3)C2)c1 (centres undefined) | 9.91% | - | 3.218%
C[C@H]1CN(Cc2cccc(F)c2)C[C@@]12CCN(CC(=O)N(C)C)C2=O | 9.615% | - | 0.1287%
CC(=O)N1CCC(N2CCOC(CC3CCCCC3)C2)CC1 (centres undefined) | 9.524% | 18.89% | 0%
Cc1nccn1C1CCCN(C(=O)c2ccc3c(c2)nc(C)n3C)C1 (centres undefined) | 13.39% | 1.629% | 4.725%
COc1ccc(CC(=O)N2CCN(Cc3ccco3)C[C@H]2C)cc1OC | 15.83% | 35.91% | 0.7177%
CN(CCCN1CCCCCC1)C(=O)c1ccccc1NCC(=O)O | 50.6% | 28.33% | 5.34%
Cc1ccsc1CN(C)Cn1nccc1-c1cccnc1 | 22.81% | 13.71% | 7.258%
O=C(NCCn1nc(-n2cncn2)ccc1=O)c1ccc(F)cc1F | 15.22% | -28.29% | 0.7264%
[H][C@@]12COC[C@]1(COc1nccc(C)n1)CN(C(=O)c1ccnn1C)C2 | - | -1.629% | -
Cn1ncc(CN2CCc3onc(-c4cccc(F)c4)c3C2)c1C1CC1 | 29.51% | 26.92% | 7.143%
[H][C@]12CC[C@@]3(N=C(C)NC3=O)[C@@]1([H])CN(CC(C)C)C2 | - | -2.027% | -
Cc1ccccc1CN1C[C@@H]2CC[C@H](C1)N(CC1CCC1)C2=O | 34.4% | - | -1.327%
O=C(O)C(F)(F)F.O=C(c1cscn1)N1CCc2ncc(CN3CCCC3)n2CC1 | - | 2.765% | -
Cc1noc(C)c1S(=O)(=O)NC(=O)COc1ccc(C(C)C)cc1 | -4.63% | -8.73% | 0.7895%
CCCn1nc2c(cc1=O)CN(C(C)C(=O)Nc1nccs1)CC2 (centres undefined) | 17.86% | 1.713% | 1.04%
CCc1nc(CN2CCN(C(=O)c3cc(C)no3)CC2)cs1 | 18.87% | 17.14% | -5.263%
CN1CCN(C2CCN(CCOc3cccc(F)c3)CC2)C1=O | 8.696% | 14.42% | 4%
O=C(NCCc1cccnc1)N1CCCC1c1ccsc1 (centres undefined) | 12.77% | 10.02% | 2.591%
CCNC(=O)N(Cc1cccc(OC)c1)C1CCC(O)CC1 (centres undefined) | 25.71% | 7.091% | -